At least one peptide structure holds a part that was inferred or is arguable (an end, a ring closure or a residue). Bridge positions count the residues as written; N and C are the ends. Peptide text beside a SMILES is read from it.
Key:
[1] = target: T1, F1-gp120 binding to CD4+ human cells (Human immunodeficiency virus type 1 group M subtype B, UniProt P04578); assay: Inhibition of fluoresceinated gp120 binding to CD4+ cells (flow microfluorimetry); details: compound 1 mg; none 21, background 9
T1 construct: Recombinant gp-120 was obtained from Raymond Sweet at Smith Kline Beecham and directly fluoresceinated; purchased Raymond Sweet at Smith Kline Beecham (obtained, not a catalogue product); host or cells: CD4+ human cells (Jurkat CD4+)
Protocol: This assay uses fluoresceinated gp120 and monitors its ability to bind to CD4+.
Recombinant gp-120 was obtained from Raymond Sweet at Smith Kline Beecham and directly fluoresceinated. Flow microfluorimetry was performed using a FACScan. Chen, et al., (1992) Proc. Nat'l. Acad. Sci. U.S.A., 89:5872-5876; Weiner, et al., (1990) Cancer Detection and Prevention, 14:317-320; and Weiner, et al., (1990) Vaccines, 339-345, discloses the assay was done using the CD4 related synthetic compounds or, separately, monoclonal anti-CD4 antibody as described.

CD4+ T cells = assay: Blocking of T cell activation by tetanus toxoid (3H-TdR incorporation); type: cell-based; set-up: dose or concentration left out as unconfirmed; details: 10^4 T cells + tetanus toxoid; 48 hours; none 45,090 cpm
Protocol: 10^4 blood monocytes were pulsed with […] of tetanus toxoid for
hours. 10^4 CD4+ T cells were added with the compounds […] in
a final volume of […] of media. The cells were pulsed with […]
HTdR and assayed at 48 hours.

HIV-1MN = assay: Syncytium assay, HIV; type: cell-based; details: .5 mg
Protocol: Chen, et al., (1992) Proc. Nat'l. Acad. Sci. U.S.A., 89:5872-5876; Weiner, et al. (1990) Cancer Detection and Prevention, 14:317-320, discloses Sup T1 cells are used as target cells because of their rapid and high degree of fusion when co-cultured with HIV-1 producing cell lines. Uninfected target cells were assayed by co-culture with HIV-infected cells (H9/IIIB.) Washed, HIV-infected cells are plated in 96-well plates (10^4 cells/well in RPMI 1640+10% FCS) and incubated for 30 min at 37° C. Target cells are then added at 5×10^5 /well and the number of syncytia is qualitatively determined after a 48-hour incubation period. CD4 forms to be tested are added at time 0 or 24 hours after the assay has been initiated. Graded doses are used, controls including random linear peptides are also added independently. sCD4 and antibodies to CD4 are used as positive controls.
Another neutralization assay which is used in the field is as follows. […] Fusion was evaluated 3 days later quantitatively by counting the number of syncytia per well in triplicate under a phase contrast microscope. The neutralization value (the ability of a compound to inhibit HIV infection 0 Vn/Vo) is calculated by dividing the mean number of syncytia per well following treatment with specific antiserum by the mean number of syncytia per well without antiserum (see: Montefiori, et al., (1988) J. Clin. Microbiol., 26:231-235).

Compound: CC(C)C[C@@H]1NC(=O)[C@H](Cc2ccccc2)NC(=O)[C@H](CO)NC(=O)CNC(=O)[C@H](CCC(N)=O)NC(=O)[C@H](CC(N)=O)NC(=O)[C@@H](NC(=O)[C@@H](N)Cc2ccc(O)cc2)CSSC[C@@H](C(=O)N[C@@H](Cc2ccc(O)cc2)C(=O)O)NC1=O [SEQ ID NO:1, Y, C, N, Q, G, S, F, L, C, Y] (H-YCNQGSFLCY-OH; disulfide 2-9)
- Mean Channel Fluorescence [1]: 17
- 3H-TdR incorporation (cpm) (CD4+ T cells): 35,000 cpm

Compound: C[C@@H](O)[C@@H]1NC(=O)[C@@H](NC(=O)[C@@H](N)Cc2ccccc2)CSSC[C@@H](C(=O)N[C@@H](Cc2ccc(O)cc2)C(=O)O)NC(=O)[C@H](CCCCN)NC(=O)[C@H](CO)NC(=O)[C@@H]2CCCN2C(=O)CNC(=O)[C@H](CCCCN)NC1=O [SEQ ID NO:3, F, C, T, K, G, P, S, K, C, Y] (H-FCTKGPSKCY-OH; disulfide 2-9)
- Mean Channel Fluorescence [1]: 11

Compound: CC(C)[C@@H]1NC(=O)[C@H](CCC(=O)O)NC(=O)[C@@H](NC(=O)[C@@H](N)Cc2ccccc2)CSSC[C@@H](C(=O)N[C@@H](Cc2ccc(O)cc2)C(=O)O)NC(=O)[C@H](CCC(=O)O)NC(=O)[C@H](CCCCN)NC(=O)[C@H](CCC(N)=O)NC(=O)[C@H](CC(=O)O)NC(=O)[C@H](CCC(=O)O)NC1=O [SEQ ID NO:8, F, C, E, V, E, D, Q, K, E, C, Y] (H-FCEVEDQKECY-OH; disulfide 2-10)
- Mean Channel Fluorescence [1]: 11

Compound: CC(C)C[C@@H]1NC(=O)[C@@H](NC(=O)[C@@H](N)Cc2ccccc2)CSSC[C@@H](C(=O)N[C@@H](Cc2ccc(O)cc2)C(=O)O)NC(=O)[C@H](CC(C)C)NC(=O)[C@H](C(C)C)NC(=O)[C@H](CCC(N)=O)NC(=O)CNC(=O)[C@H](CO)NC(=O)[C@H](CC(=O)O)NC(=O)[C@H](CO)NC1=O [SEQ ID NO:9, F, C, L, S, D, S, G, Q, V, L, C, Y] (H-FCLSDSGQVLCY-OH; disulfide 2-11)
- Mean Channel Fluorescence [1]: 20
- 3H-TdR incorporation (cpm) (CD4+ T cells): 45,000 cpm
- % protection from syncytia (HIV-1MN): 0%
- syncytia (HIV-1MN; none 100): 55

— patent US6100377A, “Constrained peptides” (The Trustees of the University of Pennsylvania, priority 1994, dated 2000)
